Assay results taken from PubChem BioAssay AID1508600 (Functional Genomics Laboratory (NCATS/FGL), 2020).
Screen size: about 53,000 sequences; about 3,700 (7%) were called active.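 The calls were made as follows: active = gene knockdowns whose robust z-score for IL-1 alpha signal is at least 2 or at most -2, so actives lie on both sides; inactive = the rest.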 Some of the results follow.

Experiment: Components of the Cytosolic LPS Sensing Pathway: Gene Identification via Genome-wide siRNA Screen
Details: RAW264.7 macrophages, IL-1a HTRF, actives lie on both sides, screened at 100 nM (by protocol), cells primed 5 h with Pam3CSK4 first
Description: Non-canonical inflammasome activation by cytosolic LPS is a critical component of the host response to Gram-negative bacterial infection, however we lack a comprehensive understanding of the cellular processes that control this pathway. Here we describe a genome-wide siRNA screen to identify genes regulating the mouse macrophage IL-1 alpha response to cytosolic LPS.
RAW264.7 cells were maintained in complete DMEM media, comprising DMEM with 4.5 g/L glucose, 10% FBS (Gemini Bio-Products, West Sacramento, CA), 2 mM Glutamine (Lonza) and 20 mM HEPES (Lonza), hereafter complete DMEM.
The RNAi screen was conducted in 384-well format using the Ambion Silencer Mouse Genome siRNA Library (#4391425), which consists of three unique, nonoverlapping, nonpooled siRNAs for each of 17,000 gene targets. siRNA reagents ([…]) were stamped into 384-well white flat-bottom microplates (Corning, 3570) using a Velocity11 VPrep liquid handling system (Agilent) integrated into a BioCel robotic platform (Agilent) in columns 1-22, leaving columns 23-24 empty for negative (Ambion, Negative control #1) and positive (mouse Casp4) controls, respectively. The median value of each plate's negative control column was used to normalize sample wells, and the positive control was used to assess transfection efficiency and assay performance.
Lipofectamine RNAiMAX Transfection Reagent ([…]; Invitrogen) was added in […] serum-free, antibiotic-free media to plate wells using a Thermo Scientific Matrix WellMate and Microplate Stacker. Plates were incubated for 45 min at room temperature to allow for the sufficient formation of siRNA-lipid complexes. Cells were seeded at a density of 1x10^4 cells per well in 20 microL media containing 20% (vol/vol) FBS without antibiotics. The final concentration of siRNA in each well was 100 nM. Cells were cultured for 48h at 37 degrees C in 5% CO2 before addition of […] of TLR ligand Pam3CSK4 for 5 hours. The medium was then removed, replaced with […] growth media and cell were transfected with […] of LipidA and TransIT-TKO (Mirus) for 24 hour. At the end of the LipidA treatment, […] of supernatant was transferred to a 384 Greiner Bio-one non-binding low volume plate and […] of IL-1a HTRF reagent (Cisbio, 62MIL1APEH) was added and incubated at room temperature overnight. The plates were read on an EnVision plate reader (PerkinElmer). Cell viability was measured by adding 20ul Cell Titer Glo to the original plate and running a luminescence read on the EnVision. The quantified IL-1a signal for each siRNA gene-targeted well was divided by the median of the negative control wells and multiplied by 100 to achieve a negative control normalized value for each well/siRNA. This normalized value was then used to generate a robust z-score by first taking the log of each value and then by subtracting the median and dividing by the […].

| Sequence | z-score |
| --- | --- |
| GUUGUCAAGAGAUACAUGUTT against Ugt2b37 | inactive: 0.378 |
| GGAACAUCCAUGUAUUCAATT against Ube2l3 | inactive: 0.76 |
| GGUCAUGUUUGGUUAGAAGTT against Immp1l | inactive: -0.748 |
| GGGACCACCUUGAACACUATT against Slc52a3 | inactive: 1.81 |
| GGCAGUCUUGUCCCUUGUATT against Myl12a | inactive: -0.74 |
| CCUAUAAAUGUCCUUAGUCTT against Ccdc115 | inactive: 0.127 |
| GCAACCUAUUUGUCUCUAUTT against Trhde | inactive: 1.02 |
| GGACAGCAUGAUCCUACAATT against Smr2 | inactive: -0.962 |
| GCUACAACCUUGAGAAACUTT against Duoxa2 | inactive: 0.706 |
| CCUCACUGGUACAAUCCCATT against Tsg101 | inactive: -0.906 |
| CCAAGUAGAUAGGAAUUAUTT against Eps8 | inactive: 2 |
| GGGUGGACCUUCGGAAUUATT against Mrpl23 | inactive: 1.52 |
| GGCUUCAAAACAAACAUCATT against Hsd17b2 | inactive: 0.289 |
| GGAGACAGCAAAAGGGCUGTT against Macrod1 | inactive: 1.18 |
| GGAGGAAAAGAGACAGCUCTT against Kank2 | active: -2.41 |
| CCUGGUAAUCACAAUUUCGTT against Tor1b | inactive: -0.655 |
| GCUCAAUGUUUGGCAACUUTT against Olfr1087 | inactive: -1.7 |
| GGAUUAUGGUCUCAUUGUCTT against Exd2 | inactive: 0.0549 |
| GGAUAUGUACUGUCCAUCUTT against B3galt4 | inactive: 0.563 |
| GCAAGCACGUCAGAAUCUCTT against Pln | active: 2.32 |
| GGAAGUCAUUCUUGAGAAGTT against Gm10413 | inactive: 0.732 |
| CCACUAUCGCAUACAGCAATT against Olfr215 | inactive: 0.562 |
| GCAGUCAUUCAAGGUUCCUTT against Hmces | inactive: -0.231 |
| GGAAGUAUAAGUGAGCAGATT against Dbnl | inactive: -0.579 |
| GCAUUUUGCUUACUUACUGTT against Marchf2 | inactive: 0.0293 |
| GCAAGUCAGACUCCUAGUGTT against Daw1 | inactive: 1.36 |
| CCUUUAGUGUGGGUUUAUUTT against Mcm10 | inactive: 0.38 |

3 entries from above, with each value named:
CCUAUAAAUGUCCUUAGUCTT against Ccdc115
  z-score: inactive: 0.127
GCAUUUUGCUUACUUACUGTT against Marchf2
  z-score: inactive: 0.0293
CCUUUAGUGUGGGUUUAUUTT against Mcm10
  z-score: inactive: 0.38

Remaining list, next part

| Sequence | z-score |
| --- | --- |
| GCCAGUGUCUUAAAAGUUUTT against Trat1 | inactive: -0.285 |
| GGCUGGUUGAAGGUUGUGATT against Teddm1a | inactive: -1.03 |
| GCACCUGACAGAUACUUCCTT against Ints4 | active: -2.1 |
| GGGCAAAAUAUAGCAAUGATT against Vmn1r233 | active: -2.11 |
| GGCACUACGUGAUGUAUUATT against Tle1 | inactive: -0.276 |
| GGCAGAAUAUGUCAACUCGTT against Ddx31 | inactive: -1.21 |
| CUUUUGUAAAGCCUUCCACTT against Zfp708 | inactive: -0.259 |
| GGAAGACACACAGUACAUGTT against Rfx2 | active: 2.92 |
| CCUAUACCUUGGACUUCCGTT against Mfsd2a | inactive: -1.46 |
| GGUUGAAUGAGGUUAUAAGTT against Anks4b | inactive: -0.973 |
| GGUCUUUUGGAAUCUCUGGTT against Crip3 | inactive: -0.548 |
| GGAACAAAUUAGAAUAGCUTT against Rnf11 | inactive: -0.434 |
| GGACAACAUUGACAAGUUCTT against Clcn7 | inactive: 1.36 |
| GGCAACUGAAAUGUUUGUUTT against Rap2c | active: 2.14 |
| GGACGAAUUUGAGGAAAUATT against Lrp4 | inactive: -0.596 |
| GGAGUGCUUUUAAAUCCCUTT against Rreb1 | inactive: -1.43 |
| GGAGGUUCGGCUAAAACUGTT against BC005624 | inactive: -1.58 |
| GCGAGGUGAAAAGCUUCUGTT against Sobp | inactive: -0.433 |
| GGUGUACCAAGUGUUUUCATT against Faf2 | active: 3.08 |
| GGCAUUUUCAUGUGCUUUGTT against Wdhd1 | inactive: -0.364 |
| CGGUUAAAUGAUUUUGCUATT against Cox5a | inactive: 0.815 |
| GGAAAUUCAAAAGACGCAGTT against Orm2 | inactive: 0.785 |
| GCAAGCCAAAUUGUCCCGGTT against Usp39 | inactive: -0.00475 |
| GGGUUGUGGCUGCUACUAUTT against Pira2 | active: 2.18 |
| CCAUGUUCCUGGCAUAUAUTT against Opn4 | inactive: 0.889 |
| CCACAUAAGUGGCUUAUCATT against Slc35d2 | inactive: -1.79 |
| GCGCGUGACAAGGAGGAUUTT against Ska3 | inactive: 1.03 |
